Reference: PubChem BioAssay AID652243 (Drosophila RNAi Screening Center, 2013)
Purpose: 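Fly genes required for human androgen receptor driven transcription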 (primary screen). Cell system: Drosophila S2R+ cells. Reagents: long dsRNA against Drosophila genes. Time to read-out: 72 h (48 h, then 24 h hormone). Conditions: synthetic androgen R1881 at 10 nM for 24 h. Measured: 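Per-well raw luminescence of the androgen-driven firefly reporter and of the Renilla control, two replicates each, without normalisation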. Direction: firefly reporter light: higher = more light from androgen-responsive reporter; Renilla control light: higher = more constitutive control signal (cell number, transfection). Hit rule: 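Across duplicate plates, a knock-down whose log firefly/Renilla ratio shifted a set fold down or up from the GFP/LacZ control mean was a hit; the downward cut appears as both 1.5 and 3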. Meaning of the calls: active = hit: reporter lowered or raised; inactive = no hit.
The deposit covers about 24,000 reagents; this is a random part of those that have a named target and a result. In the full data, 246 (1%) were called active. 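Plates not normalised; calls are printed but the firefly/Renilla ratio behind them is not deposited; fold cut for lowering reported inconsistently.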 Raw values are not corrected between plates. Not stated in the record: the amount of reagent.

Gene	dsRNA	firefly reporter light, replicate 1	firefly reporter light, replicate 2	Renilla control light, replicate 1	Renilla control light, replicate 2	call
beta3GalTII	DRSC07253	2.86e5	3.78e5	1.23e6	1.34e6	inactive
beta3GalTII	DRSC29091	9.74e5	9.58e5	1.75e6	1.50e6	inactive
CG11262	DRSC09831	3.34e5	1.36e5	2.28e6	1.26e6	inactive
jus	DRSC23018	6.22e5	7.37e5	8.10e5	8.60e5	inactive
jus	DRSC26804	2.11e5	2.14e5	8.09e5	8.98e5	inactive
ord	DRSC04706	1.93e5	1.79e5	1.61e6	1.56e6	inactive
Lamtor5	DRSC18491	3.04e5	4.34e5	3.90e6	4.45e6	inactive
BCL7-like	DRSC17729	1.53e5	1.51e5	9.09e5	8.50e5	inactive
BCL7-like	DRSC29657	3.86e5	6.02e5	4.17e5	4.17e5	inactive
MED6	DRSC16500	70631	1.22e5	6.04e5	7.65e5	inactive
CG32095	DRSC22615	5.02e5	5.87e5	1.85e6	1.48e6	inactive
CG33689	DRSC38838	9.64e5	7.82e5	2.03e6	1.57e6	inactive
CG3337	DRSC15478	4.66e5	4.95e5	2.83e6	3.74e6	inactive
Cox10	DRSC02804	6.43e5	4.71e5	1.23e6	1.11e6	inactive
Obp58c	DRSC04166	2.86e5	3.29e5	2.00e6	1.75e6	inactive
Dd	DRSC20539	1.48e5	1.25e5	8.87e5	5.69e5	inactive
Cyp12a4	DRSC16620	2.38e5	2.46e5	2.80e6	3.17e6	inactive
Cyp12a4	DRSC24072	3.85e5	5.24e5	3.79e5	5.61e5	inactive
resilin	DRSC05627	1.53e5	2.07e5	1.64e5	3.67e5	inactive
resilin	DRSC06595	1.54e5	1.55e5	2.80e6	2.80e6	inactive
CG34443	DRSC29357	6.90e5	6.70e5	1.62e6	1.62e6	inactive
CG8087	DRSC16375	1.97e5	2.14e5	2.41e6	2.53e6	inactive
CG8087	DRSC26924	5.33e5	4.30e5	8.38e5	4.98e5	inactive

Continued, starting with the last 4 of the part before.
Gene	dsRNA	firefly reporter light, replicate 1	firefly reporter light, replicate 2	Renilla control light, replicate 1	Renilla control light, replicate 2	call
resilin	DRSC06595	1.54e5	1.55e5	2.80e6	2.80e6	inactive
CG34443	DRSC29357	6.90e5	6.70e5	1.62e6	1.62e6	inactive
CG8087	DRSC16375	1.97e5	2.14e5	2.41e6	2.53e6	inactive
CG8087	DRSC26924	5.33e5	4.30e5	8.38e5	4.98e5	inactive
Ilp6	DRSC17906	4.09e5	4.34e5	4.53e6	2.91e6	inactive
CG30268	DRSC21983	9.34e5	8.68e5	1.94e6	2.24e6	inactive
Jhbp10	DRSC37785	4.60e5	3.52e5	1.85e6	9.29e5	inactive
CG8852	DRSC00719	96836	80246	7.19e5	4.30e5	inactive
CG8852	DRSC24465	7.82e5	5.96e5	1.05e6	8.46e5	inactive
CG5664	DRSC11782	3.81e5	4.73e5	3.29e6	4.54e6	inactive
TfIIA-S	DRSC16883	88541	1.36e5	1.57e6	1.94e6	inactive
CG10514	DRSC14249	1.12e5	1.47e5	1.67e6	1.71e6	inactive
CG10514	DRSC28098	3.71e5	4.65e5	1.53e6	1.77e6	inactive
Mvl	DRSC16752	1.10e5	71578	9.86e5	5.79e5	inactive
Golgin245	DRSC04374	7.80e5	6.96e5	9.76e5	1.04e6	inactive
Golgin245	DRSC22012	9.22e5	8.18e5	1.54e6	1.20e6	inactive
Golgin245	DRSC30015	7.30e5	4.61e5	1.46e6	1.62e6	inactive
CG34281	DRSC14807	2.71e5	2.36e5	2.87e6	2.81e6	inactive
CG34281	DRSC30111	8.64e5	7.35e5	1.16e6	9.96e5	inactive
Cfp1	DRSC18128	2.31e5	2.33e5	2.10e6	2.75e6	inactive
Neurochondrin	DRSC12580	1.34e5	42141	4.35e5	3.53e5	inactive
Neurochondrin	DRSC26704	1.98e5	2.59e5	5.83e5	6.65e5	inactive
